# According to PubChem BioAssay AID504834 (National Center for Advancing Translational Sciences (NCATS), 2011):
# Hit rate of the full screen: of about 320,000 compounds, about 22,000 (6.9%) were called active. The inconclusive results got no clear call from the source; some entries with a clear call stand among them for comparison. Calls come from the whole dose curve; as a rule, active = well fitted inhibition curve with a large enough effect; inconclusive = small, poorly fitted or top-dose-only effect, or another doubt; inactive = no such curve, though single readings can be large or run the other way. Where the call is inconclusive, the potency comes from a doubtful curve fit.
# Assay: Primary qHTS for delayed death inhibitors of the malarial parasite plastid, 96 hour incubation
# Conditions: P. falciparum luciferase reporter growth; series mostly up to 28.7 µM; activity change, negative = inhibition: at the top concentration
# In short: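 Compounds incubated with erythrocytes infected by luciferase-expressing P. falciparum (2% hematocrit, 0.05% parasitemia final) for 96 hours, 37 C in 5% CO2. Growth inhibition scored as decreased luciferase luminescence.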
# % is set by controls: 0 for no effect and ±100 for the full control effect; potency is the fitted concentration of half-maximal effect.
SMILES,Potency,"activity change, negative = inhibition"
CN(CCC1CCCCO1)C(=O)CCc1nnc(Cc2c[nH]c3ccccc23)o1 (centres undefined),"inconclusive: 18.5 µM [inhibitor, single point]",
CCc1ccc(NC(=O)CCn2ccnc2C)cc1,"inconclusive: 2.33 µM [inhibitor, full curve]",
CC1(C)Cc2c(cnn2-c2cccc(F)c2)C(NC(=O)CSc2ccccn2)C1 (centres undefined),"inconclusive: 18.5 µM [inhibitor, single point]",
COc1ccc(C(CNC(=O)Cc2c(F)cccc2Cl)N2CCCCC2)cc1 (centres undefined),"inconclusive: 18.5 µM [inhibitor, single point]",
CC(NC(=O)Nc1ccc(O)cc1)(C(F)(F)F)C(F)(F)F,"inconclusive: 8.28 µM [inhibitor, partial curve, poor fit]",
O=C(NCCCN1CCCC1=O)Nc1ccccc1Cl,,inactive: 13.1%
CCCN1CCC(=O)N([C@H](CN=[N+]=[N-])CC(C)C)CC1,active: 4.65 µM,
O=C(NC1CCCC1)c1cccc2c1C(=O)c1ccc(/C=C/c3ccccc3)cc1S2(=O)=O,active: 1.85 µM,
OC(CNCCc1ccc(C(F)(F)F)cc1)COc1cccc2ccccc12 (centres undefined),active: 6.57 µM,
C/C(=N\NC(=S)NCc1ccccc1)c1cccs1,"inconclusive: 3.7 µM [inhibitor, full curve, poor fit]",
CCOc1c(Br)cc(/C=N\NC(=O)c2ccccc2)cc1OC,active: 8.28 µM,
CN(C(=O)COC(=O)Cc1c(Cl)cccc1Cl)C1CCS(=O)(=O)C1 (centres undefined),"inconclusive: 14.7 µM [inhibitor, partial curve, poor fit]",
COC(=O)c1cc(OC)c(OC)cc1NC(=O)c1cc(C(C)(C)C)oc1C,"inconclusive: 1.85 µM [inhibitor, partial curve]",
CN1CCN(C(CNS(=O)(=O)c2ccc(Cl)cc2)c2cccnc2)CC1 (centres undefined),"inconclusive: 3.7 µM [inhibitor, partial curve]",
O=S(=O)(NC1c2cccc3cccc(c23)C1N1CCNCC1)c1ccc(Cl)cc1 (centres undefined),,inactive: -18.7%
C/C(=N\N=C(/N)c1nonc1N)c1ccc2c(c1)OCO2,,inactive: 167%
CCOc1ccc2nc(N3CCC(C(=O)N4CCC5(CC4)OCCO5)CC3)sc2c1,,inactive: 46.9%
C=CCn1c(Cc2ccc(OC)cc2)nnc1SCC(=O)NCCc1ccccc1,"inconclusive: 10.4 µM [inhibitor, partial curve, poor fit]",
CC(C)N(C(=O)c1nn(C)c2c1CSc1ccccc1-2)C1CCCCC1,active: 2.08 µM,
C#CCNC(=O)C1=C[C@@H](c2ccc3c(c2)OCO3)[C@H](CCCO)[C@@H](OCC)O1,"inconclusive: 8.28 µM [inhibitor, partial curve]",
Cc1cc(S(=O)(=O)Nc2ccc(C(=O)N3CCN(C(=O)c4ccco4)CC3)cc2)ccc1F,"inconclusive: 4.15 µM [inhibitor, partial curve, poor fit]",
COc1ccc(NC(=O)CN(C)CC(=O)Nc2ccc3c(c2)CCC3)cc1,,inactive: 22.9%
CCCN(CC(=O)Nc1cc(Cl)ccc1Cl)C(=O)/C=C/c1ccco1,"inconclusive: 18.5 µM [inhibitor, single point]",

# Three compounds already listed, arranged by molecular weight, low to high.
SMILES,Potency,"activity change, negative = inhibition"
O=C(NCCCN1CCCC1=O)Nc1ccccc1Cl,,inactive: 13.1%
COc1ccc(NC(=O)CN(C)CC(=O)Nc2ccc3c(c2)CCC3)cc1,,inactive: 22.9%
C=CCn1c(Cc2ccc(OC)cc2)nnc1SCC(=O)NCCc1ccccc1,"inconclusive: 10.4 µM [inhibitor, partial curve, poor fit]",

# Next entries follow:

SMILES,Potency,"activity change, negative = inhibition"
Cc1cccc(C(=O)NC2CC3CCCC(C2)N3S(=O)(=O)c2ccccc2)c1 (centres undefined),"inconclusive: 4.15 µM [inhibitor, partial curve]",
CCN(CC)c1ccc(/C=C(\C#N)C(=O)c2ccc(Br)cc2)cc1,,inactive: 9.24%
COc1ccc(NC(=O)NCC(C)CSc2ccc(C)cc2)c(OC)c1 (centres undefined),"inconclusive: 18.5 µM [inhibitor, single point]",
O=C(c1cccc(Cl)c1)N1CCN(C2CCCCC2)CC1,,inactive: 33.9%
COCCNC(=O)c1ccc(CSc2nc3ccccc3s2)cc1,,inactive: -24.3%
Cc1coc2cc3oc(=O)c(CCC(=O)N4C[C@H]5C[C@@H](C4)c4cccc(=O)n4C5)c(C)c3cc12,"inconclusive: 10.4 µM [inhibitor, single point]",
COc1ccc(NC(=O)C(Cc2cc(C)cc(C)c2)C(C)C(=O)O)cc1 (centres undefined),"inconclusive: 10.4 µM [inhibitor, single point]",
Cc1ccc(C(C)(C)NC(=O)C2CCC(=O)N(CC3CCCCC3)C2)cc1 (centres undefined),"inconclusive: 0.0026 µM [inhibitor, full curve, poor fit]",
c1cc(-c2nc3cc(Cc4ccc5oc(-c6ccncc6)nc5c4)ccc3o2)ccn1,,inactive: 12.2%
CC(C)CCNc1nc(N)c([N+](=O)[O-])c(N2CCCCCC2)n1,active: 2.08 µM,
COc1ccc(S(=O)(=O)N(CC(=O)N/N=C/c2cccs2)c2cc(C)cc(C)c2)cc1OC,"inconclusive: 18.5 µM [inhibitor, single point]",
CCC(CC)C(=O)Nc1cccc(-c2nc3ccccc3o2)c1,"inconclusive: 18.5 µM [inhibitor, single point]",
COCCCNC(=O)c1ccc(S(=O)(=O)c2ccc(Cl)cc2)c(NC(C)=O)c1,,inactive: -8.31%
Cc1noc(C)c1S(=O)(=O)N(CC(=O)N1CCn2c1nc1ccccc12)c1ccc(C(C)C)cc1,"inconclusive: 10.4 µM [inhibitor, single point]",
Cc1[nH]n(-c2cccc3ccccc23)c(=O)c1/C=N/NC(=O)c1cccc([N+](=O)[O-])c1,,inactive: 46.6%
Cc1ccc(S(=O)(=O)N2CCCC2CNC(=O)c2ccccc2)cc1 (centres undefined),"inconclusive: 7.38 µM [inhibitor, partial curve, poor fit]",
CCN(CC(=O)Nc1ccc(NC(C)=O)cc1)C(=O)c1cccnc1Sc1ccc(C)c(C)c1,,inactive: 1.5%
CN(C)S(=O)(=O)c1ccc(C(=O)Nc2ccc(Cl)cc2)cc1,"inconclusive: 0.329 µM [inhibitor, full curve, poor fit]",
O=C(CCc1nnc(COc2ccccc2)o1)NCc1ccccc1,"inconclusive: 8.28 µM [inhibitor, partial curve]",
CC(C)CC(=O)N1CCN(Cc2ccc(Cl)cc2)CC1,"inconclusive: 18.5 µM [inhibitor, single point]",
Cc1cccc(C)c1OCC(=O)N(Cc1ccco1)C1CCS(=O)(=O)C1 (centres undefined),"inconclusive: 1.65 µM [inhibitor, partial curve]",
COc1cc(C)cc(CN2CC=C(c3ccccc3)CC2)c1O,"inconclusive: 3.29 µM [inhibitor, full curve]",

SMILES,Potency,"activity change, negative = inhibition"
O=C(Cn1c(=O)oc2cc(S(=O)(=O)N3CCCC3)ccc21)N1CCN(c2ccccn2)CC1,active: 11.7 µM,
Cc1c2c(n3c(nc4ccccc43)c1C#N)N(CCN(C)C)CC2,,inactive: 73.8%
C/C(=N/NC(=O)CN1CCN(S(=O)(=O)c2ccc(Br)cc2)CC1)c1ccco1,"inconclusive: 2.62 µM [inhibitor, single point]",
O=C(NCc1cccs1)C1CCN(S(=O)(=O)c2cccs2)CC1,"inconclusive: 0.465 µM [inhibitor, full curve, poor fit]",
O=C(COc1ccc(Cl)cc1)Nc1ccccc1C(=O)NCc1cccnc1,"inconclusive: 18.5 µM [inhibitor, single point]",
COc1ccc(CNC(=O)C2=CC(c3ccc(OC)c(OC)c3)=NS(=O)(=O)N2C)cc1,,inactive: 40.5%
CC(=O)c1ccc(S(=O)(=O)N2CCC(NC(=O)Nc3cccc(F)c3)CC2)cc1,"inconclusive: 1.65 µM [inhibitor, full curve, poor fit]",
COc1cccc2sc(Nc3nc(-c4ccncc4)cs3)nc12,,inactive: -28.6%
COc1ccccc1NC(=O)c1cc2n(n1)C(C(F)(F)F)CC(c1ccc3c(c1)OCO3)N2 (centres undefined),,inactive: 76.5%
Cc1nn(-c2ccc(F)cc2)c(Cl)c1/C=C1\C(=O)Nc2ccccc21,"inconclusive: 10.4 µM [inhibitor, single point]",
Cc1nn(C(C)c2nc(-c3ccccc3)no2)c(C)c1[N+](=O)[O-] (centres undefined),"inconclusive: 10.4 µM [inhibitor, partial curve, poor fit]",
Cc1ccc(C(OC(=O)c2ccco2)C(=O)NC2CCCCC2)cc1 (centres undefined),"inconclusive: 0.0586 µM [inhibitor, full curve, poor fit]",
O=C(NCCN1CCOCC1)c1cc(-c2cccs2)on1,active: 9.28 µM,
COc1ccccc1CC(=O)NCCCc1ccccc1,"inconclusive: 18.5 µM [inhibitor, single point]",
N#Cc1nc(-c2ccccc2F)oc1NCCc1ccccn1,"inconclusive: 0.233 µM [inhibitor, full curve, poor fit]",
COc1ccccc1NC(=O)c1ccc(NC(=O)COC(=O)CC(NC(=O)c2ccccc2Cl)c2ccccc2)cc1 (centres undefined),,inactive: 13%
Cc1cc(/C=N/NC(=O)c2c(Br)cnn2C)c(C)n1-c1cccc(Br)c1,"inconclusive: 10.4 µM [inhibitor, single point]",
O=c1[nH]c(=O)n(-c2cccc(Cl)c2)c(O)c1/C=N/c1ccccn1,"inconclusive: 2.33 µM [inhibitor, partial curve, poor fit]",
O=C(Nc1ccc2c(c1)nc1n2CCOC1)C1CCCCC1,,inactive: 199%
C=CCN1C(=O)C(CC(=O)Nc2ccccc2)SC1=Nc1c(C)n(C)n(-c2ccccc2)c1=O (centres undefined),"inconclusive: 18.5 µM [inhibitor, single point]",
CC(C)n1cnc2c(Nc3cccc(Cl)c3)nc(N(CCO)CCCO)nc21,"inconclusive: 0.828 µM [inhibitor, partial curve, poor fit]",
O=C(NCCC1=CCCCC1)c1cnc2n(c1=O)CCS2,,inactive: -9.52%
CCCCN1C(=O)C(=Nc2cccc3cnccc23)c2ccccc21,"inconclusive: 10.4 µM [inhibitor, partial curve, poor fit]",
